Data from the supplement of paper PMC12819154, “High-throughput peptide-centric local stability assay extends protein–ligand identification to membrane proteins, tissues and bacteria” (Nature Structural & Molecular Biology, 2025).
The list shows a part of the results. Most entries show no effect beyond the scatter of the controls.

The chains behind the UniProt entries cited, without tags or fusion partners. Where a name states a change or a piece, a line headed by the entry shows the natural chain unless it says otherwise.
UniProt Q92769, whole entry: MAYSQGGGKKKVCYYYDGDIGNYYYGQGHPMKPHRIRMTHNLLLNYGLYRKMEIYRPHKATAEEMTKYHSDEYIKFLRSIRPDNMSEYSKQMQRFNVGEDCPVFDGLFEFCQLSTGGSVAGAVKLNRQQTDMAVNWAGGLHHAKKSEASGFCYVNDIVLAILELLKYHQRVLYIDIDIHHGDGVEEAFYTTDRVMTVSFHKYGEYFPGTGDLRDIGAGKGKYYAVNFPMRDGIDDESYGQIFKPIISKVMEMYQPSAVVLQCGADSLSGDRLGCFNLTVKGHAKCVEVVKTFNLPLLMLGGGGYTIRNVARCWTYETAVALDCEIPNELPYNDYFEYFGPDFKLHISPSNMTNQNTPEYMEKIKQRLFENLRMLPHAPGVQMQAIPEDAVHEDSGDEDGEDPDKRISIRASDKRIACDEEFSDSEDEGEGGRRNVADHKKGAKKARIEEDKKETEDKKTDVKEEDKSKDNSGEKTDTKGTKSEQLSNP
UniProt Q92696: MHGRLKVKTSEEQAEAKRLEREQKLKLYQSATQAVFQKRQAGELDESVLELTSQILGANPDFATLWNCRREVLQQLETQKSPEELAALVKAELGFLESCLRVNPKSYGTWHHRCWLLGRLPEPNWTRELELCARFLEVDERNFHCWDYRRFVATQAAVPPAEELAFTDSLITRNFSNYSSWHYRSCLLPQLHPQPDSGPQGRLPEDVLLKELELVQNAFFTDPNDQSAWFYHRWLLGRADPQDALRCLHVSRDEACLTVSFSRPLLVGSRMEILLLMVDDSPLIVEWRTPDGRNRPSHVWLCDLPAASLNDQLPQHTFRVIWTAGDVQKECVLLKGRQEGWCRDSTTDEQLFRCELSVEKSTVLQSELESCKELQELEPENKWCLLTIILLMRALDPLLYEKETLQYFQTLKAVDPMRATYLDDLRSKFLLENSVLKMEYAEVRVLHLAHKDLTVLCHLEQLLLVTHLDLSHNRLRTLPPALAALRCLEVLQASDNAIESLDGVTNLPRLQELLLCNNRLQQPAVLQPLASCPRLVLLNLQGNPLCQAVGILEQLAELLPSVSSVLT
UniProt Q969F1: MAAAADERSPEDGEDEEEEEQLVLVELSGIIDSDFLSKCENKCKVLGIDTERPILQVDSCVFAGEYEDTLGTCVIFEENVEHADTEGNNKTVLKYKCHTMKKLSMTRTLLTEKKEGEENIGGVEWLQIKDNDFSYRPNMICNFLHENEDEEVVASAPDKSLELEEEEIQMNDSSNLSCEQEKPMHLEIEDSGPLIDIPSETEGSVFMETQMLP
UniProt Q96D15: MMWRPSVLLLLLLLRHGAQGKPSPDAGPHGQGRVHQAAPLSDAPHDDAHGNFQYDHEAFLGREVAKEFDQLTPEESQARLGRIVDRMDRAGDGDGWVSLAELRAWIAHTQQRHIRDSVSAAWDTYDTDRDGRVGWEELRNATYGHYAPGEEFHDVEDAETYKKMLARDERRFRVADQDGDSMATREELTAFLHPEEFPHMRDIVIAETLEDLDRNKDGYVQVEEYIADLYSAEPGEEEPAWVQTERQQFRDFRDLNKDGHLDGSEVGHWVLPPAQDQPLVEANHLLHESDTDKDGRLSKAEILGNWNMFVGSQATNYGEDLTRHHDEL
UniProt Q96A37: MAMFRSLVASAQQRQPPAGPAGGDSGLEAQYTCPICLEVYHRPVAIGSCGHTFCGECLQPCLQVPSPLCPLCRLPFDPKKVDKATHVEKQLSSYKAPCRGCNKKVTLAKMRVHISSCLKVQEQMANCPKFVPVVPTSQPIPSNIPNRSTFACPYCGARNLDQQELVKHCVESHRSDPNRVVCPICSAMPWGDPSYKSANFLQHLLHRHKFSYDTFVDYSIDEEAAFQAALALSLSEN
UniProt Q96EP9: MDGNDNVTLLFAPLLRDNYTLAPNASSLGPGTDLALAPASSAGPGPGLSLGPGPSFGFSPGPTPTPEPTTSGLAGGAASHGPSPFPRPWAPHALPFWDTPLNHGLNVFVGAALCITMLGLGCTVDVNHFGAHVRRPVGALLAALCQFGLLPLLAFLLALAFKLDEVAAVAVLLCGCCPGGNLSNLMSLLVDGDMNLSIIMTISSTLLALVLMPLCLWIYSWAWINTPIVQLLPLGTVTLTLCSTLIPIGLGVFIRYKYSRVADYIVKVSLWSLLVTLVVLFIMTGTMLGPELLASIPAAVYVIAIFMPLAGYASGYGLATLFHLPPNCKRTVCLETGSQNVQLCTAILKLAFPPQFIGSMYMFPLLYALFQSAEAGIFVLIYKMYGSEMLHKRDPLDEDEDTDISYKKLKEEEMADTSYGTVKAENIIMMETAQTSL
UniProt Q92782, whole entry: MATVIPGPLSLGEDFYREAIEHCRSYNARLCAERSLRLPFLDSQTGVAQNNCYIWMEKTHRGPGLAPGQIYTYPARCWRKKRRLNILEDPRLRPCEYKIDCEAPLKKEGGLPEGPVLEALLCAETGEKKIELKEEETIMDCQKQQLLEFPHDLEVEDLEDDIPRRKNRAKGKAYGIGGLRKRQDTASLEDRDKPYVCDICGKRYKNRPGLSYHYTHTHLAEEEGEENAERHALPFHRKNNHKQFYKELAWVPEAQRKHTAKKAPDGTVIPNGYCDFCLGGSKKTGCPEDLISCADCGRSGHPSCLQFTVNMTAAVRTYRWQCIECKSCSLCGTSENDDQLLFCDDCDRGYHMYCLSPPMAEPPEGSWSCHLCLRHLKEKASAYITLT
UniProt Q92628: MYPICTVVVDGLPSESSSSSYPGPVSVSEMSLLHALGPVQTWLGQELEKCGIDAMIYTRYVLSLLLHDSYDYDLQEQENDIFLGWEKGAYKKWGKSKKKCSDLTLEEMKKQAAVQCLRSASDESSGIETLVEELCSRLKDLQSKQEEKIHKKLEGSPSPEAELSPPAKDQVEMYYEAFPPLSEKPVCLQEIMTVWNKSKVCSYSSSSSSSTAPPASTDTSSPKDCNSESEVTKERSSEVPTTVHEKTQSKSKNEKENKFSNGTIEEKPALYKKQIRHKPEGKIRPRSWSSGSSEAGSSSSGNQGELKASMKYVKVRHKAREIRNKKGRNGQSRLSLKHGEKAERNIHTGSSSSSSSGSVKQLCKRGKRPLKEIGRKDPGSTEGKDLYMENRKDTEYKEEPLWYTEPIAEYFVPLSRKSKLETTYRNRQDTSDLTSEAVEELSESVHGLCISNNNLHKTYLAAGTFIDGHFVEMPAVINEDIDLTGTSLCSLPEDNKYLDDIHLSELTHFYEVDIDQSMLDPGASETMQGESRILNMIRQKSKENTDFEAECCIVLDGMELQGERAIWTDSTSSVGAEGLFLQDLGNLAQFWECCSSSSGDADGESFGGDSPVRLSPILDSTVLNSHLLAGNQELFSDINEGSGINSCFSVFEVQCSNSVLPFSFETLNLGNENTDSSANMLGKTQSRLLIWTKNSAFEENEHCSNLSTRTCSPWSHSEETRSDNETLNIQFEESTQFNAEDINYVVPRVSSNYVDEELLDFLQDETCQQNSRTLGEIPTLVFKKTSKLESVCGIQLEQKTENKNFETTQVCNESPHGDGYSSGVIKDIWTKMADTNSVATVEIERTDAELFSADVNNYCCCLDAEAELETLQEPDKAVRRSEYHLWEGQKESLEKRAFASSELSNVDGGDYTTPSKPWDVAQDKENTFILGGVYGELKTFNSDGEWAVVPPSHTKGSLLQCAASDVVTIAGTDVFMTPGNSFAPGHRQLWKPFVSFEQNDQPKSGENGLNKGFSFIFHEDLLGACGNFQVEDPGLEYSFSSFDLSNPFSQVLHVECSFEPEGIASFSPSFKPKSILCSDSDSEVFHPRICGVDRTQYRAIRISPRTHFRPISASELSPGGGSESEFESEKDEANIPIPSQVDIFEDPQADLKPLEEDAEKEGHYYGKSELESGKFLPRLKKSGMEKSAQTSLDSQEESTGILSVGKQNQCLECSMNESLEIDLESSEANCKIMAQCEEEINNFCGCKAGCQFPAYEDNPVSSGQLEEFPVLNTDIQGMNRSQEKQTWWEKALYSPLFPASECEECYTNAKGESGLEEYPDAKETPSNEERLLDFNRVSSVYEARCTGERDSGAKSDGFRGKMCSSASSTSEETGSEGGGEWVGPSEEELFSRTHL
UniProt Q96AT1: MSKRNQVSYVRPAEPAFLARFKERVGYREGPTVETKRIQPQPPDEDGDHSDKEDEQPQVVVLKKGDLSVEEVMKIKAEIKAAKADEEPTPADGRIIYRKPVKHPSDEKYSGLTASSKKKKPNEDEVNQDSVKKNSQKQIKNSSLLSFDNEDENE
UniProt Q96DM3: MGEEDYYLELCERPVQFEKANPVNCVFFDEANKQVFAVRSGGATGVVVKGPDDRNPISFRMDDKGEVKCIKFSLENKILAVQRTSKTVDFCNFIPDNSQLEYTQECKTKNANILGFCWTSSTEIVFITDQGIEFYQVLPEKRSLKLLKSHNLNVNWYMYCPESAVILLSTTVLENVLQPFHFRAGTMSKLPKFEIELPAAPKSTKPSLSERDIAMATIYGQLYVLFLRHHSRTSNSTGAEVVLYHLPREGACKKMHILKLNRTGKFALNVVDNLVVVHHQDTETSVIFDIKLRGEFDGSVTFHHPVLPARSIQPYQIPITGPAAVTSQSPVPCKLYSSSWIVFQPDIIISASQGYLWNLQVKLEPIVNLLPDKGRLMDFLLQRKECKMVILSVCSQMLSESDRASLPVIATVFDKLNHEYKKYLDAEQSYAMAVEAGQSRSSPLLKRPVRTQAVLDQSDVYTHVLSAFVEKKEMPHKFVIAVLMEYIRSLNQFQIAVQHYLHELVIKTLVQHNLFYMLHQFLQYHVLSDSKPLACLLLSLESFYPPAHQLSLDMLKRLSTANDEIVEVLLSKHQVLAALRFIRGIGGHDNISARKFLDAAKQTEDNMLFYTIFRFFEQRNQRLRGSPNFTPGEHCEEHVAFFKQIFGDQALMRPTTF
UniProt Q93034, whole entry: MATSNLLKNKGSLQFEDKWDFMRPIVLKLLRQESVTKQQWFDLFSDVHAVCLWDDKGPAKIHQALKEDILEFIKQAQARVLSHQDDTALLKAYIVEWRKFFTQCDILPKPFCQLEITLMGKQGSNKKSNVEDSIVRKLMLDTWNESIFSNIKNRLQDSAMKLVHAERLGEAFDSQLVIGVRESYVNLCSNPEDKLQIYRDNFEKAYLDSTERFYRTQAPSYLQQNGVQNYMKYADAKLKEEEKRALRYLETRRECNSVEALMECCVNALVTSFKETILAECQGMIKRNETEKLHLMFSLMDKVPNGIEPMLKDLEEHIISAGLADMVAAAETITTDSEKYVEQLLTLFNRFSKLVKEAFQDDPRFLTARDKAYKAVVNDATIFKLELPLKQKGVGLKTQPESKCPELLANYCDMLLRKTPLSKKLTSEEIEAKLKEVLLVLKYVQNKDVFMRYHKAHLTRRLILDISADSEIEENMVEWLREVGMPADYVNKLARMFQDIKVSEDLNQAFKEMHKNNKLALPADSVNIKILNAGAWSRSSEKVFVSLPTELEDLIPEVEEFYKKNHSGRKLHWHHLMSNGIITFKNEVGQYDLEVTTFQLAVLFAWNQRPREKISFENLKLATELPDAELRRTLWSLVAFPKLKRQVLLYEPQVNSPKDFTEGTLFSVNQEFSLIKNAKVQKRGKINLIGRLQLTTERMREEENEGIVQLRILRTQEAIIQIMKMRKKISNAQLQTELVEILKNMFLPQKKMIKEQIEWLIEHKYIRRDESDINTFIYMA
UniProt Q96CS2: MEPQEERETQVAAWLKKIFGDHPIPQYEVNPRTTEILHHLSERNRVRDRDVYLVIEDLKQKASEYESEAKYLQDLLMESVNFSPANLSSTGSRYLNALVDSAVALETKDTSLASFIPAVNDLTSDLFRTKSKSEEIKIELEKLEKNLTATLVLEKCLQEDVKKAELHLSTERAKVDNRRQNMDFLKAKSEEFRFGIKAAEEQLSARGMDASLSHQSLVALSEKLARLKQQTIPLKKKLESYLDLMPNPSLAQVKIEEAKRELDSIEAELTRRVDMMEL
UniProt Q96B97, whole entry: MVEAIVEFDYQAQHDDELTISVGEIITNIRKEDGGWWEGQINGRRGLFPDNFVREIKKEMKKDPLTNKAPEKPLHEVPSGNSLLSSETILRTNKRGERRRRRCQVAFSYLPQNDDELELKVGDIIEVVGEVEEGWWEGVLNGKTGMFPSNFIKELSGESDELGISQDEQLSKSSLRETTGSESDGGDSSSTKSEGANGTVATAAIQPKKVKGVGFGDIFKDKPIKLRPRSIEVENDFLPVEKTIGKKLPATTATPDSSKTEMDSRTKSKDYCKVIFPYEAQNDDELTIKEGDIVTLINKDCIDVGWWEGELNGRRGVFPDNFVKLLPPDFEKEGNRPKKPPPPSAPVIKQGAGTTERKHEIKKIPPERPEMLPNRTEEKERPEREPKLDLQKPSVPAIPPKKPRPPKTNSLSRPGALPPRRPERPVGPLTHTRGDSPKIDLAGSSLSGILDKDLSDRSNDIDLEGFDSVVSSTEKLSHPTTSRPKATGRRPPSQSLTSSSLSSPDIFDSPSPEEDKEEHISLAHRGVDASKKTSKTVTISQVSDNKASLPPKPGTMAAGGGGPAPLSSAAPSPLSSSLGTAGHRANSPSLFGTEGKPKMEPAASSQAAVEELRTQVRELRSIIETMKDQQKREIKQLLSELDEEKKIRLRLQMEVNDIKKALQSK

compound: Cc1nc(Nc2ncc(C(=O)Nc3c(C)cccc3Cl)s2)cc(N2CCN(CCO)CC2)n1 [dasatinib]; assay: log2 fold change of tryptic peptide abundance, ligand vs vehicle (limited proteolysis) (log2 ratio); higher = more trypsin-susceptible (destabilized); details: ligand concentration: 5 uM; sample: K562 cleared lysate

| Target | log2 fold change |
| --- | --- |
| UniProt Q92831 (peptide sequence: GKPVVEGSLEK, peptide start residue: 202) | 0.214 |
| HDAC2 (peptide sequence: ARIEEDKK, peptide start residue: 445) (UniProt Q92769) | -0.122 |
| RABGGTA (peptide sequence: TSEEQAEAKR, peptide start residue: 9) (UniProt Q92696) | -0.973 |
| PPWD1 (peptide sequence: DVITHVVCTK, peptide start residue: 91) (UniProt Q96BP3) | -0.454 |
| RAD50 (peptide sequence: KQMEKDNSELEEK, peptide start residue: 280) (UniProt Q92878) | 1.29 |
| GTF3C6 (peptide sequence: KEGEENIGGVEWLQIK, peptide start residue: 114) (UniProt Q969F1) | 0.154 |
| RCN3 (peptide sequence: EELTAFLHPEEFPHMR, peptide start residue: 186) (UniProt Q96D15) | 0.188 |
| MOCOS (peptide sequence: HLGISNEMVR, peptide start residue: 432) (UniProt Q96EN8) | 0.151 |
| NECTIN2 (peptide sequence: YHELPTLEER, peptide start residue: 454) (UniProt Q92692) | 0.246 |
| RNF166 (peptide sequence: SANFLQHLLHR, peptide start residue: 197) (UniProt Q96A37) | 0.345 |
| RPL3L (peptide sequence: KVACIGAWHPAR, peptide start residue: 250) (UniProt Q92901) | -0.0463 |
| SLC10A4 (peptide sequence: KLKEEEMADTSYGTVK, peptide start residue: 408) (UniProt Q96EP9) | 0.124 |
| DPF1 (peptide sequence: LNILEDPR, peptide start residue: 84) (UniProt Q92782) | 0.245 |
| UniProt Q92628 (peptide sequence: NSAFEENEHCSNLSTR, peptide start residue: 694) | 0.629 |
| ATP6V0A1 (peptide sequence: HLGTLNFGGIR, peptide start residue: 667) (UniProt Q93050) | -0.139 |
| EMG1 (peptide sequence: AAPSDGFKPR, peptide start residue: 2) (UniProt Q92979) | -0.0516 |
| KIAA1143 (peptide sequence: HPSDEKYSGLTASSK, peptide start residue: 103) (UniProt Q96AT1) | 0.434 |
| UniProt Q96DM3 (peptide sequence: SGGATGVVVKGPDDRNPISFR, peptide start residue: 40) | 0.313 |
| UniProt Q96DB5 (peptide sequence: ALEKNESSFASHK, peptide start residue: 153) | -0.351 |
| CUL5 (peptide sequence: VLSHQDDTALLK, peptide start residue: 80) (UniProt Q93034) | -0.323 |
| UBE2W (peptide sequence: WWYHDDTC, peptide start residue: 144) (UniProt Q96B02) | -0.0714 |
| UniProt Q96CS2 (peptide sequence: AKSEEFR, peptide start residue: 187) | -0.268 |
| NRBF2 (peptide sequence: KAAAYLSEAMK, peptide start residue: 36) (UniProt Q96F24) | 0.283 |
| PHKB (peptide sequence: EAFNEFQKDQSR, peptide start residue: 1030) (UniProt Q93100) | -0.371 |
| ZNF669 (peptide sequence: EVMQETCR, peptide start residue: 117) (UniProt Q96BR6) | 0.286 |
| OSBP2 (peptide sequence: GRWDEANTEK, peptide start residue: 832) (UniProt Q969R2) | -0.448 |
| SH3KBP1 (peptide sequence: KPPPPSAPVIK, peptide start residue: 339) (UniProt Q96B97) | 1.15 |
| USP7 (peptide sequence: VFYELQHSDKPVGTKK, peptide start residue: 263) (UniProt Q93009) | 0.645 |

Shown comma-delimited: entries from further up
Target,log2 fold change
"GTF3C6 (peptide sequence: KEGEENIGGVEWLQIK, peptide start residue: 114) (UniProt Q969F1)",0.154
"NECTIN2 (peptide sequence: YHELPTLEER, peptide start residue: 454) (UniProt Q92692)",0.246
